Source: US12419304B2, “Aryl sulfide comprising benzylamine, synthesis method and application thereof” (Shandong Kangqiao Bio-Technology Co., Ltd., priority 2019, dated 2025)
Some of these results come from one statement about several compounds together.

Tested on: Tetranychus cinnabarinus
Test: Activity test of Tetranychus cinnabarinus (spray on inoculated bean seedlings, mortality after 72 hours)
Format: in vivo
Conditions: 25 ppm (25 mg/L), whole plant sprayed
Method: Activity Test of Tetranychus cinnabarinus
The compound under test was dissolved in acetone and diluted to desired concentration with 0.1% Tween 80 solution with acetone content not exceeding 5%.
One true leaf was removed from the bean seedlings having two true leaves. Tanyanychus cinarinus was inoculated and the cardinal number thereof investigated. The whole plant was sprayed with a handheld sprayer, and each treatment was repeated for 3 times. After treatment, the bean seedlings were cultured in a constant temperature room. 72 hours later, the number of live mites was investigated and the mortality rate was calculated. The number of Tetranychus cinnabarinus was 100-200 per inoculation. Mortality=(number of inoculated mites−number of live mites after treatment)[…]×100%.

Row | Structure (SMILES) | lethal rate against mites
1 | Fc1ccc(CNc2cc(SCC(F)(F)F)c(Cl)cc2F)c(SCC(F)(F)F)c1 [Compound 1282] | more than 90%
2 | COC(=O)c1cc(C#N)ccc1CNc1cc([S+]([O-])CC(F)(F)F)c(Cl)cc1F (stereo not shown) [Compound 1178] | more than 90%
3 | CCOC(=O)c1cc(F)ccc1CNc1cc([S+]([O-])CC(F)(F)F)c(C)cc1F (stereo not shown) [Compound 306] | more than 90%

Same assay, conditions: 100 ppm (100 mg/L), whole plant sprayed

Row | Structure (SMILES) | lethal rate against mites
4 | CC(=O)c1ccccc1CNc1cc([S+]([O-])CC(F)(F)F)c(Cl)cc1Cl (stereo not shown) [Compound 1032] | over 90%
5 | COC(=O)c1cc(C#N)ccc1CNc1cc([S+]([O-])CC(F)(F)F)c(C)cc1F (stereo not shown) [Compound 1126] | over 90%
6 | CCOC(=O)c1cc(F)ccc1CNc1cc(SCC(F)(F)F)c(C)cc1C [Compound 425] | over 90%
7 | FCCSc1cc(F)ccc1CNc1cc(SCC(F)(F)F)c(Cl)cc1F [Compound 1286] | over 90%
8 | CCc1cc(F)ccc1CNc1cc(SCC(F)(F)F)c(C)cc1F [Compound 255] | over 90%
9 | Cc1cc(F)c(NCc2ccc(Cl)cc2Cl)cc1SCC(F)(F)F [Compound 509] | over 90%
10 | Cc1cc(F)c(NCc2ccc(F)cc2C#N)cc1SCC(F)(F)F [Compound 283] | over 90%
11 | Cc1cc(F)c(NCc2ccc(F)cc2SCC(F)F)cc1SCC(F)(F)F [Compound 1324] | over 90%
12 | CCCOC(=O)c1cc(F)ccc1CNc1cc([S+]([O-])CC(F)(F)F)c(C)cc1F (stereo not shown) [Compound 308] | over 90%
13 | Cc1cc(F)c(NCc2ccccc2Cl)cc1SCC(F)(F)F [Compound 27] | over 90%
14 | COC(=O)c1ccccc1CNc1cc([S+]([O-])CC(F)(F)F)c(C)cc1C (stereo not shown) [Compound 168] | over 90%
15 | Cc1cc(F)c(NCc2ccccc2[S+]([O-])CC(F)(F)F)cc1[S+]([O-])CC(F)(F)F (stereo not shown) [Compound 1311] | over 90%
16 | CCC[S+]([O-])c1cc(NCc2ccccc2C(=O)OC)c(F)cc1C (stereo not shown) [Compound 818] | over 90%
17 | [O-][S+](CC(F)(F)F)c1cc(NCc2ccccc2SCCF)c(F)cc1Cl (stereo not shown) [Compound 1269] | over 90%
18 | Cc1cc(F)c(NCc2ccccc2C(=O)OCC(F)(F)F)cc1SCC(F)(F)F [Compound 71] | over 90%
19 | Fc1ccc(CNc2cc(SCC(F)(F)F)c(Cl)cc2F)c(SCC(F)(F)F)c1 [Compound 1282] | over 90%
20 | Cc1cc(F)c(NCc2ccc(F)cc2CO)cc1SCC(F)(F)F [Compound 289] | over 90%
21 | CNC(=O)c1ccccc1CNc1cc([S+]([O-])CC(F)(F)F)c(Cl)cc1Cl (stereo not shown) [Compound 1072] | over 90%
22 | CCc1ccccc1CNc1cc(SCC(F)(F)F)c(C)cc1F [Compound 5] | over 90%
23 | Cc1cc(F)c(NCc2ccccc2F)cc1SCC(F)(F)F [Compound 25] | over 90%
24 | Cc1cc(C)c([S+]([O-])CC(F)(F)F)cc1NCc1ccccc1CO (stereo not shown) [Compound 154] | over 90%
25 | FCCSc1ccccc1CNc1cc(SCC(F)(F)F)c(Cl)cc1F [Compound 1268] | over 90%
26 | Cc1cc(F)c(NCc2ccccc2SCCF)cc1SCC(F)(F)F [Compound 1304] | over 90%
27 | CCc1cc(F)ccc1CNc1cc([S+]([O-])CC(F)(F)F)c(C)cc1F (stereo not shown) [Compound 256] | over 90%
28 | CCCSc1cc(F)ccc1CNc1cc([S+]([O-])CC(F)(F)F)c(C)cc1F (stereo not shown) [Compound 368] | over 90%
29 | CCC[S+]([O-])c1cc(NCc2ccccc2C(=O)OC)c(C)cc1C (stereo not shown) [Compound 930] | over 90%
30 | CCOC(=O)c1ccccc1CNc1cc([S+]([O-])CC(F)(F)F)c(Cl)cc1F (stereo not shown) [Compound 1205] | over 90%
31 | Fc1ccc(CNc2cc(SCC(F)(F)F)c(Cl)cc2F)c(SCC(F)F)c1 [Compound 1288] | over 90%

Row | Structure (SMILES) | lethal rate against mites
32 | CCCSc1cc(NCc2ccccc2C(=O)OC)c(C)cc1C [Compound 929] | over 90%
33 | COc1ccccc1CNc1cc([S+]([O-])CC(F)(F)F)c(C)cc1F (stereo not shown) [Compound 96] | over 90%
34 | CCCSc1cc(NCc2ccccc2C(=O)OCC)c(C)cc1C [Compound 931] | over 90%
35 | Cc1cc(F)c(NCc2ccccc2[S+]([O-])CC(F)(F)F)cc1SCC(F)(F)F (stereo not shown) [Compound 1310] | over 90%
36 | C=COC(=O)c1ccccc1CNc1cc(SCC(F)(F)F)c(C)cc1F [Compound 67] | over 90%
37 | COC(=O)c1cc(C#N)ccc1CNc1cc([S+]([O-])CC(F)(F)F)c(Cl)cc1F (stereo not shown) [Compound 1178] | over 90%
38 | CCCSc1cc(NCc2ccccc2C(C)=O)c(F)cc1C [Compound 805] | over 90%
39 | CNC(=O)c1cc(F)ccc1CNc1cc(SCC(F)(F)F)c(C)cc1F [Compound 331] | over 90%
40 | CCC[S+]([O-])c1cc(NCc2ccccc2C(=O)CC)c(F)cc1C (stereo not shown) [Compound 808] | over 90%
41 | Cc1cc(F)c(NCc2ccc(F)cc2CO)cc1[S+]([O-])CC(F)(F)F (stereo not shown) [Compound 290] | over 90%
42 | CCOC(=O)c1cc(Cl)ccc1CNc1cc([S+]([O-])CC(F)(F)F)c(C)cc1F (stereo not shown) [Compound 538] | over 90%
43 | CCCSc1cc(NCc2ccccc2C(=O)NC)c(C)cc1C [Compound 957] | over 90%
44 | [O-][S+](CC(F)(F)F)c1cc(NCc2ccccc2[S+]([O-])CC(F)(F)F)c(F)cc1Cl (stereo not shown) [Compound 1275] | over 90%
45 | CC(=O)c1ccccc1CNc1cc([S+]([O-])CC(F)(F)F)c(C)cc1C (stereo not shown) [Compound 156] | over 90%
46 | CCOC(=O)c1cc(Cl)ccc1CNc1cc(SCC(F)(F)F)c(C)cc1C [Compound 649] | over 90%
47 | C=COC(=O)c1cc(F)ccc1CNc1cc(SCC(F)(F)F)c(C)cc1F [Compound 317] | over 90%
48 | CCOC(=O)c1cc(F)ccc1CNc1cc([S+]([O-])CC(F)(F)F)c(C)cc1F (stereo not shown) [Compound 306] | over 90%
49 | Cc1cc(F)c(NCc2ccccc2C#N)cc1[S+]([O-])CC(F)(F)F (stereo not shown) [Compound 34] | over 90%
50 | Cc1cc(F)c(NCc2ccc(Cl)c(Cl)c2)cc1[S+]([O-])CC(F)(F)F (stereo not shown) [Compound 248] | over 90%
51 | CCCc1cc(F)ccc1CNc1cc(SCC(F)(F)F)c(C)cc1F [Compound 257] | over 90%
52 | Cc1cc(C)c([S+]([O-])CC(F)(F)F)cc1NCc1ccccc1F (stereo not shown) [Compound 140] | over 90%
53 | Cc1cc(F)c(NCc2ccccc2C(F)(F)F)cc1[S+]([O-])CC(F)(F)F (stereo not shown) [Compound 4] | over 90%
54 | Cc1cc(F)c(NCc2ccc(F)cc2SCCF)cc1SCC(F)(F)F [Compound 1322] | over 90%
55 | CCC[S+]([O-])c1cc(NCc2ccccc2C(=O)OCC)c(C)cc1C (stereo not shown) [Compound 932] | over 90%
56 | Cc1cc(F)c(NCc2ccccc2CO)cc1[S+]([O-])CC(F)(F)F (stereo not shown) [Compound 40] | over 90%
57 | [O-][S+](CC(F)(F)F)c1cc(NCc2ccc(F)cc2[S+]([O-])CC(F)(F)F)c(F)cc1Cl (stereo not shown) [Compound 1293] | over 90%
58 | COC(=O)c1cc(C#N)ccc1CNc1cc(SCC(F)(F)F)c(C)cc1F [Compound 1125] | over 90%
